These are yes or no findings as the source states them, for the method shown. Tags and fused reporters may be left off the sequences shown.
Assays:
[1] = target: titin A168–A170^ΔKTLE (human); experiment: far-Western, overlay or dot blot; filter-binding assay: purified titin constructs spotted (approx. 1 µg; A169-TK in 10-fold lower quantity) on nitrocellulose, blocked with TBST/5% milk, incubated 3 h with biotinylated MuRF1-coiled-coil at 0.5 µg/ml in TBST/1% milk; detection with streptavidin-alkaline phosphatase and NBT/BCIP; both purified
[2] = target: titin single domain A169 (human); experiment: as above

B1: His6-MuRF1-coiled-coil (aa169–263) (domain or fragment, UniProt Q969Q1 169-263)
chain: ELNNCISMLVAGNDRVQTIITQLEDSRRVTKENSHQVKEELSQKFDTLYAILDEKKSELLQRITQEQEKKLSFIEALIQQYQEQLDKSTKLVETA
modifications: biotinylated with NHS-PEG4-Biotin
Question: B1 was tested. Which binding [1] did it give?
Answer: Its binding is “no binding (tested: 0.5 µg ml^−1 MuRF1-coiled-coil)”.

Question: What about the binding [2] of the same binder?
Answer: Its binding is “no binding (tested: 0.5 µg ml^−1 MuRF1-coiled-coil)”.
